From patent US20220098252A1, “INHIBITOR OF DUX4 AND USES THEREOF” (OSPEDALE SAN RAFFAELE S.R.L., published 2022)
These are yes or no findings as the source states them, for the method shown. Binding seen in cells or lysates may run through a third protein. Some binding calls cover weakened binding; strength is not graded here. For part of these data: Where a sequence is shown, tags or fusion partners need not be part of it.

How the values were obtained:
[1] = target: DUX4 (transfected, pLBC2-BS-RFCA-BCVIII vector) (human) (UniProt Q9UBX2); test: anti-FLAG M2 pull-down from nuclease-treated nuclear extracts of transfected HEK293T cells, immunoblot anti-DUX4 E5-5
[2] = target: STREP-HA DUX4 DNA-binding domain (dbd) (human) (UniProt P0CJ85); test: Strep-Tactin pull-down from nuclear extracts of transfected cells, biotin elution, immunoblot
[3] = target: STREP-HA DUX4 DNA-binding domain (dbd) (human) (UniProt P0CJ85); test: semi-endogenous Strep-Tactin pull-down, nuclease-treated nuclear extracts, immunoblot

Row | binding [1] | binding [2] | binding [3] | Binder
1 | binds | – | – | FLAG MATR3 full-length (protein, human, UniProt P43243 1-847, looked up, not shown: small tags and cut ends) MSKSFQQSSLSRDSQGHGRDLSAAGIGLLAAATQSLSMPASLGRMNQGTARLASLMNLGMSSSLNQQGAHSALSSASTSSHNLQSIFNIGSRGPLPLSSQHRGDADQASNILASFGLSARDLDELSRYPEDKITPENLPQILLQLKRRRTEEGPTLSYGRDGRSATREPPYRVPRDDWEEKRHFRRDSFDDRGPSLNPVLDYDHGSRSQESGYYDRMDYEDDRLRDGERCRDDSFFGETSHNYHKFDSEYERMGRGPGPLQERSLFEKKRGAPPSSNIEDFHGLLPKGYPHLCSICDLPVHSNKEWSQHINGASHSRRCQLLLEIYPEWNPDNDTGHTMGDPFMLQQSTNPAPGILGPPPPSFHLGGPAVGPRGNLGAGNGNLQGPRHMQKGRVETSRVVHIMDFQRGKNLRYQLLQLVEPFGVISNHLILNKINEAFIEMATTEDAQAAVDYYTTTPALVFGKPVRVHLSQKYKRIKKPEGKPDQKFDQKQELGRVIHLSNLPHSGYSDSAVLKLAEPYGKIKNYILMRMKSQAFIEMETREDAMAMVDHCLKKALWFQGRCVKVDLSEKYKKLVLRIPNRGIDLLKKDKSRKRSYSPDGKESPSDKKSKTDGSQKTESSTEGKEQEEKSGEDGEKDTKDDQTEQEPNMLLESEDELLVDEEEAAALLESGSSVGDETDLANLGDVASDGKKEPSDKAVKKDGSASAAAKKKLKKVDKIEELDQENEAALENGIKNEENTEPGAESSENADDPNKDTSENADGQSDENKDDYTIPDEYRIGPYQPNVPVGIDYVIPKTGFYCKLCSLFYTNEEVAKNTHCSSLPHYQKLKKFLNKLAEERRQKKET
2 | – | binds | binds | endogenous MATRIN-3 (MATR3) (protein, human, UniProt P43243 2-847, looked up) SKSFQQSSLSRDSQGHGRDLSAAGIGLLAAATQSLSMPASLGRMNQGTARLASLMNLGMSSSLNQQGAHSALSSASTSSHNLQSIFNIGSRGPLPLSSQHRGDADQASNILASFGLSARDLDELSRYPEDKITPENLPQILLQLKRRRTEEGPTLSYGRDGRSATREPPYRVPRDDWEEKRHFRRDSFDDRGPSLNPVLDYDHGSRSQESGYYDRMDYEDDRLRDGERCRDDSFFGETSHNYHKFDSEYERMGRGPGPLQERSLFEKKRGAPPSSNIEDFHGLLPKGYPHLCSICDLPVHSNKEWSQHINGASHSRRCQLLLEIYPEWNPDNDTGHTMGDPFMLQQSTNPAPGILGPPPPSFHLGGPAVGPRGNLGAGNGNLQGPRHMQKGRVETSRVVHIMDFQRGKNLRYQLLQLVEPFGVISNHLILNKINEAFIEMATTEDAQAAVDYYTTTPALVFGKPVRVHLSQKYKRIKKPEGKPDQKFDQKQELGRVIHLSNLPHSGYSDSAVLKLAEPYGKIKNYILMRMKSQAFIEMETREDAMAMVDHCLKKALWFQGRCVKVDLSEKYKKLVLRIPNRGIDLLKKDKSRKRSYSPDGKESPSDKKSKTDGSQKTESSTEGKEQEEKSGEDGEKDTKDDQTEQEPNMLLESEDELLVDEEEAAALLESGSSVGDETDLANLGDVASDGKKEPSDKAVKKDGSASAAAKKKLKKVDKIEELDQENEAALENGIKNEENTEPGAESSENADDPNKDTSENADGQSDENKDDYTIPDEYRIGPYQPNVPVGIDYVIPKTGFYCKLCSLFYTNEEVAKNTHCSSLPHYQKLKKFLNKLAEERRQKKET
